Experimental data taken from patent US20110143366A1, “PROTEIN BIOMARKERS FOR IN VITRO TESTING OF DEVELOPMENTAL TOXICITY AND ENBRYOTOXICITY OF CHEMICAL SUBSTANCES” (PROTEOSYS AG, priority 2008, published 2011).

System: neurally differentiated human embryonic stem cell
Experiment: Differential proteomic analysis of lysates from neurally differentiated human embryonic stem cells
Assay type: cell-based
Details: hESC cultures treated with methyl mercury and valproic acid; one count for both treatments

| SMILES | Number of protein spots differentially affected by the treatment |
| --- | --- |
| [CH3][Hg][Cl] [methyl mercury] | 177 |
| CCCC(CCC)C(=O)O [valproic acid] | 177 |
